Test results: PMC7297531
Results are given in words; binding and its absence hold for the method and conditions named. Binding seen in cells or lysates may run through a third protein. Some entries that bind do so weakly or less than the wild type.

Experiments:
Settings in all cases: remark: other sources report otherwise
[1] = molecular target: MCL1 (human (endogenous in LNCaP)), Q07820; experiment: co-IP; lysates of SgMARCH5-KO, HA-MCL1 or control LNCaP cells, same protein amounts, precipitated with anti-MCL1 mouse antibody or control mouse IgG and protein G agarose, blotted for MCL1, BIM, BAK and NOXA
[2] = molecular target: HA-tagged MCL1, Q07820; experiment: as above
[3] = molecular target: MCL1 (human (endogenous in LNCaP)), Q07820; experiment: co-IP; lysates of SgMARCH5-KO or control LNCaP cells (IP lysis buffer) precipitated with anti-MCL1 rabbit antibody or control rabbit IgG and protein A agarose, blotted with mouse antibodies; in Figure 4C SgMARCH5-KO cells treated with erlotinib (10 uM), S63845 (0.5 uM) or DMSO for 3 hr

Measured: binding

B1: NOXA, Q13794 1-54 (protein)
chain: MPGKKARKNAQPSPARAPAELEVECATQLRRFGDKLNFRQKLLNLISKLFCSGT
binds: [1] | [2] | [3]
